# Measurements: patent US20100008938A1, “SELF ASSEMBLING AMPHIPHILIC POLYMERS AS ANTIVIRAL AGENTS” (priority 2007, published 2010)
# At least one compound was matched to its structure with a doubt left.
# Experiment: Solubilization of dyes in aqueous polymer solution vs water, TLC spot comparison
# Conditions: C16-Polymer A 50 mg/ml
smiles,measurement,value
Cc1ccccc1/N=N/c1ccc(/N=N/c2c(O)ccc3ccccc23)c(C)c1 [Sudan IV],payload ratio (amount of drug per unit amount of polymer),approximately 1:250 g/g
